Results are given in words; binding and its absence hold for the method and conditions named. For some assays here: Binding seen in cells or lysates may run through a third protein. Some binding calls cover weakened binding; strength is not graded here.
Assays:
[1] = molecular target: endogenous murine MMP3 in conditioned medium of control SCp2 cells (mouse) (UniProt P28862); assay: IP with rabbit anti-HSP90β antibody from CM of control SCp2 cells, blot for MMP3
[2] = molecular target: endogenous murine MMP3 in conditioned medium of control SCp2 cells (mouse) (UniProt P28862); assay: reverse co-IP of HSP90β protein complexes from CM of control SCp2 cells, Western blot

The chains behind the UniProt entries cited, without tags or fusion partners. Residues count along the entry.
UniProt P28862, residues 18-477: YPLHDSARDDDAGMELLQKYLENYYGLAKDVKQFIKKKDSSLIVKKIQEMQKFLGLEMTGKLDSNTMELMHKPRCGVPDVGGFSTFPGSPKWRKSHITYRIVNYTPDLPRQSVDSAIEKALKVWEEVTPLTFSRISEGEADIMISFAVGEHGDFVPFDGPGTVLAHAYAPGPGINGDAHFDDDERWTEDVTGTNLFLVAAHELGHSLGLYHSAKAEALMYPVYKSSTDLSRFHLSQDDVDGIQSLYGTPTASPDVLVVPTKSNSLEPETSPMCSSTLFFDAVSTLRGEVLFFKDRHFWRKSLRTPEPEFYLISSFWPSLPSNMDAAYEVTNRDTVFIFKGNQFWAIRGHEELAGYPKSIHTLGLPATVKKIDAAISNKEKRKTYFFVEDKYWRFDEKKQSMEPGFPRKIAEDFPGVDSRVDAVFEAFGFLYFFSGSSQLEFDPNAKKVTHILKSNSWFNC
UniProt P11499, residues 2-724: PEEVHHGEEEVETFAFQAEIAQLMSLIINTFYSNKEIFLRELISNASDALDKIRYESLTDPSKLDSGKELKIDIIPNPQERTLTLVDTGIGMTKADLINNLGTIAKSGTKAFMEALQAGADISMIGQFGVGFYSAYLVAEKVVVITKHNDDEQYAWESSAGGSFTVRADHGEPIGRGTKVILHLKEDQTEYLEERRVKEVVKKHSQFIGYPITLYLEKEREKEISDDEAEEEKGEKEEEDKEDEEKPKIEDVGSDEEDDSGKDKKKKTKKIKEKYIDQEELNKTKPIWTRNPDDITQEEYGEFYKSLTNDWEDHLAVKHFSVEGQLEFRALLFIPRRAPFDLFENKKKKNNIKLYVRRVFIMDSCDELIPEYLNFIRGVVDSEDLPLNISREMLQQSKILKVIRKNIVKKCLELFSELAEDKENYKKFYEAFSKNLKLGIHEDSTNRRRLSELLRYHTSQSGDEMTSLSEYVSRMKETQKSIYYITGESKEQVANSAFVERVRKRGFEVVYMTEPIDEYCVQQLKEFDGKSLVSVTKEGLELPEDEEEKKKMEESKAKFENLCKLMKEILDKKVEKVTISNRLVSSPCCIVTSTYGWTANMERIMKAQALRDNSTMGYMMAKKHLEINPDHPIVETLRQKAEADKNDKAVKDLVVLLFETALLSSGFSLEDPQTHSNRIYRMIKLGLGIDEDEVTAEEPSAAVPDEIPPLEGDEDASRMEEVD

In the case of “heat-shock protein 90β (HSP90β), endogenous, in conditioned medium of SCp2 cells (from UniProt P11499 2-724)”, the binding [1] is reported as “binds” and the binding [2] is reported as “binds”.
